Experimental data as given in PMC11315920.

Chains of the proteins cited; added tags and fusions are not shown.
UniProt P24782: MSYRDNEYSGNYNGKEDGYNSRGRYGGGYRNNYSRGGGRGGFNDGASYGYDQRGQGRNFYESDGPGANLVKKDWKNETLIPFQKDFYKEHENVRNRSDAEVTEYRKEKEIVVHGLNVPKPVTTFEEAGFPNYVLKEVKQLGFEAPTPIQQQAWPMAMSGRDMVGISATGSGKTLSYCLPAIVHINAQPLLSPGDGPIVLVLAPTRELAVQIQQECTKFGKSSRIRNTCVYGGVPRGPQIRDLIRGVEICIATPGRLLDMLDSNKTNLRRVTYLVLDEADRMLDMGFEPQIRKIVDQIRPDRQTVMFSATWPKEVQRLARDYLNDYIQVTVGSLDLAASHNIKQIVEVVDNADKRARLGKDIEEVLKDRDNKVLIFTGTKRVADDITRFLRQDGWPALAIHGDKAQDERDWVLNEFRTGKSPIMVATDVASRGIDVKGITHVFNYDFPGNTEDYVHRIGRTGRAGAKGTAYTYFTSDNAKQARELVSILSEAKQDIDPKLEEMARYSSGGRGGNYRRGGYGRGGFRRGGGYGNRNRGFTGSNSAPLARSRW
UniProt P36594: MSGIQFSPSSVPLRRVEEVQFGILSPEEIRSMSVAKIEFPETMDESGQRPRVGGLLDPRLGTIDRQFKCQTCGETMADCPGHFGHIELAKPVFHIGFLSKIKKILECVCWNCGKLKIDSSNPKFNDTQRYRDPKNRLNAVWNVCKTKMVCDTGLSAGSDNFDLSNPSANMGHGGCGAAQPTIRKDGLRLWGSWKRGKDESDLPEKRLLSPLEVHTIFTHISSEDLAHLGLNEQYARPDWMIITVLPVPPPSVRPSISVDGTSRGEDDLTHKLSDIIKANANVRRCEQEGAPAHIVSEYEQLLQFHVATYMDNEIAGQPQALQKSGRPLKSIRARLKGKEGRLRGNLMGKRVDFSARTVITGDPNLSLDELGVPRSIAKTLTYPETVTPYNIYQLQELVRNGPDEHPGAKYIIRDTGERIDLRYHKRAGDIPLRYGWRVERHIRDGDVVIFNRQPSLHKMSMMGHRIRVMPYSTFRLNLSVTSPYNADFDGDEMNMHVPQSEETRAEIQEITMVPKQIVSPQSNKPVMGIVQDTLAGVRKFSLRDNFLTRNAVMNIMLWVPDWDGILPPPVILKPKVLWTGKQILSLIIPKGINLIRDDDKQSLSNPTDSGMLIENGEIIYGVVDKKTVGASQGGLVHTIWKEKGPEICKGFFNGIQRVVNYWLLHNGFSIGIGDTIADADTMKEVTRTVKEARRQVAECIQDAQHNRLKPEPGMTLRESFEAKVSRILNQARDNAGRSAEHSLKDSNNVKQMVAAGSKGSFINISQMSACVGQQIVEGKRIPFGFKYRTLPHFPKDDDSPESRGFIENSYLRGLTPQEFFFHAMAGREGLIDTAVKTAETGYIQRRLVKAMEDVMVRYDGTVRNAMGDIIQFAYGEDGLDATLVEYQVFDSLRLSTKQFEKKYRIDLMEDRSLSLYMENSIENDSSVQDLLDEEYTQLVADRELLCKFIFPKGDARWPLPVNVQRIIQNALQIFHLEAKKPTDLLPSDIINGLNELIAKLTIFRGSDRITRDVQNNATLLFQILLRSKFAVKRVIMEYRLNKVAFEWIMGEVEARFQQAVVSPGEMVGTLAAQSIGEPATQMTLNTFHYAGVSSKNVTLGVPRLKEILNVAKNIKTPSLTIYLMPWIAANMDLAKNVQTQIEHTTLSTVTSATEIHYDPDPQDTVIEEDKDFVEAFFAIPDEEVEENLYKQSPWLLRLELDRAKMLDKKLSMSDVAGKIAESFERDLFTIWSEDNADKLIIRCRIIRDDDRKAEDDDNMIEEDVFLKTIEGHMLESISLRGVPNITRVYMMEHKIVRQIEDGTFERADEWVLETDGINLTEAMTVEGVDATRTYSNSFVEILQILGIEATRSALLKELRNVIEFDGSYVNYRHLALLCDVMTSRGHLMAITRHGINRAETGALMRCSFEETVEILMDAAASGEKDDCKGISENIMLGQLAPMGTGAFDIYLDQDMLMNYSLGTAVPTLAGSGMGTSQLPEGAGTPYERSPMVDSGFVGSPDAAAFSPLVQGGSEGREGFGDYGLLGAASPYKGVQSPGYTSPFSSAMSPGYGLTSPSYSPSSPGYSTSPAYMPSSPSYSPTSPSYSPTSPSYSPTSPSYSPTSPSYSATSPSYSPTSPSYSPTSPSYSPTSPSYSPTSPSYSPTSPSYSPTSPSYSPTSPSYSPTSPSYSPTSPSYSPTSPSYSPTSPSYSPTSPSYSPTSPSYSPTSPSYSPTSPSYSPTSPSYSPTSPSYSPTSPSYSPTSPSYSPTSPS

How the values were obtained:
[1] = target: T1, Srp2-HTP (S. pombe) (UniProt P78814); experiment: affinity purification with mass spectrometry; comparative interaction profiling: cells crosslinked with 0.01% formaldehyde for 10 min at 30 °C; HTP-tagged bait on IgG-sepharose, TEV elution, Ni-NTA agarose, imidazole elution; shotgun proteomics (LFQ), Dbp2-HTP relative to Srp2-HTP, no untagged control; n = 3 biological replicates
T1 sequence: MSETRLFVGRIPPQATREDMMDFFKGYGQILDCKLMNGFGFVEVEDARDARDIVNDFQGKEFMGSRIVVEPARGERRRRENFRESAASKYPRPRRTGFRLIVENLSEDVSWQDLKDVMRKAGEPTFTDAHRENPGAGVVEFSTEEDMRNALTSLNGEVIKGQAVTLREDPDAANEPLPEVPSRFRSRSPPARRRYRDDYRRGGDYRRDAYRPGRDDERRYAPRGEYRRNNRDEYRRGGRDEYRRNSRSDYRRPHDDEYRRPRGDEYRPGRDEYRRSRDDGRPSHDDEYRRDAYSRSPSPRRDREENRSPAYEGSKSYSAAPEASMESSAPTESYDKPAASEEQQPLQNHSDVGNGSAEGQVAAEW

[2] = target: Dbp2-HTP (S. pombe) (UniProt P24782); experiment: as above

binding [1]: binds
binding [2]: binds
Substance: Rpb1 (from UniProt P36594 1-1752)

These are yes or no findings as the source states them, for the method shown. In cells and extracts the contact can be indirect. Here binding means that the protein was enriched with, or labelled near, the bait; the list need not be complete.
